The list shows a part of the results.
Experiments:
Assay in all cases: log2 fold change, soluble protein after heating vs DMSO (PISA); higher = thermal stabilisation; K562 lysate, 10 uM; active = over 0.2 and 3.5 SD of the protein, either way, in both replicates (recomputed)
alvocidib = compound: CN1CC[C@H](c2c(O)cc(O)c3c(=O)cc(-c4ccccc4Cl)oc23)[C@H](O)C1 [alvocidib]
Summary of the method: (§1)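 Dounce homogenisation of K562 pellets in PBS pH 7.4 with 1 mM MgCl2 produced a crude extract, used at 1 mg/mL protein. Exposure to 10 μM compound lasted 30 min, and aliquots were then heated for 3 min across 48°C-58°C, pooled and brought to 0.5% NP-40 at 4°C. The supernatant after 21,000xg for 90 min was quantified by TMTpro 16plex LC-MS/MS with channel sums equalised. Duplicate values are given as log-two fold change in thermal stability relative to solvent controls.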

Sequences of proteins named here, by UniProt entry; tags and fusion partners are left off. A change or cut given only in a name is not applied to a line headed by its entry.
UniProt O60493, whole entry, looked up: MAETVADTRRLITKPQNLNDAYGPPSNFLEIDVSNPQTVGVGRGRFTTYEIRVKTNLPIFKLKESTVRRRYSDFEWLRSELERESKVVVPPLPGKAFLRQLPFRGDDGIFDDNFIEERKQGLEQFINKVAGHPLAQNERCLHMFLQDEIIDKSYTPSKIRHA
UniProt O60264, whole entry, looked up: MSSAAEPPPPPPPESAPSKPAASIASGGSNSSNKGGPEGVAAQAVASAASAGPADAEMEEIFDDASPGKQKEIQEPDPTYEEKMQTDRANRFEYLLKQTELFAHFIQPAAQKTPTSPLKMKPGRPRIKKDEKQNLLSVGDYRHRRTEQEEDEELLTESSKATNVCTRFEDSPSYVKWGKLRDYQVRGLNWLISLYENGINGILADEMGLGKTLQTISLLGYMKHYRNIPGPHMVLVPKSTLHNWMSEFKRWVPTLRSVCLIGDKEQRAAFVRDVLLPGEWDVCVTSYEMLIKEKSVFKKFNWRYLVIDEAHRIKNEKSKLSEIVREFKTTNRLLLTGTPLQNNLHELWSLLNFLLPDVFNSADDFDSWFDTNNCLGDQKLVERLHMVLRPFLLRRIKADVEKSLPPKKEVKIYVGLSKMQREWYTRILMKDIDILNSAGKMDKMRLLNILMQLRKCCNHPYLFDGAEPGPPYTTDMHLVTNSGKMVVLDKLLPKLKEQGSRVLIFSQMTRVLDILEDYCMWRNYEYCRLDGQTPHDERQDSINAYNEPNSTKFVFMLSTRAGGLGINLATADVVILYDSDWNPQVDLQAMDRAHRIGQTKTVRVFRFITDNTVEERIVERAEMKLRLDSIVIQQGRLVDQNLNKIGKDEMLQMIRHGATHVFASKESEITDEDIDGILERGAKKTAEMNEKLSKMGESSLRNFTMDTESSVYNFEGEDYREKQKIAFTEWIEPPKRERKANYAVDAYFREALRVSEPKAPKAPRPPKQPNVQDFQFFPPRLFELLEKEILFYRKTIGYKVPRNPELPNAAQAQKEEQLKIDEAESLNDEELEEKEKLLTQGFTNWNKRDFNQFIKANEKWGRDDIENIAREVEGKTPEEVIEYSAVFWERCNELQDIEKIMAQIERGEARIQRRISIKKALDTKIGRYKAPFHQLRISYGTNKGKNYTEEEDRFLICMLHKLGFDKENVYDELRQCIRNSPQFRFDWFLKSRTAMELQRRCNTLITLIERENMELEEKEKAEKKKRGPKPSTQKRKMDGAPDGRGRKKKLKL
UniProt Q8TAQ2, whole entry, looked up: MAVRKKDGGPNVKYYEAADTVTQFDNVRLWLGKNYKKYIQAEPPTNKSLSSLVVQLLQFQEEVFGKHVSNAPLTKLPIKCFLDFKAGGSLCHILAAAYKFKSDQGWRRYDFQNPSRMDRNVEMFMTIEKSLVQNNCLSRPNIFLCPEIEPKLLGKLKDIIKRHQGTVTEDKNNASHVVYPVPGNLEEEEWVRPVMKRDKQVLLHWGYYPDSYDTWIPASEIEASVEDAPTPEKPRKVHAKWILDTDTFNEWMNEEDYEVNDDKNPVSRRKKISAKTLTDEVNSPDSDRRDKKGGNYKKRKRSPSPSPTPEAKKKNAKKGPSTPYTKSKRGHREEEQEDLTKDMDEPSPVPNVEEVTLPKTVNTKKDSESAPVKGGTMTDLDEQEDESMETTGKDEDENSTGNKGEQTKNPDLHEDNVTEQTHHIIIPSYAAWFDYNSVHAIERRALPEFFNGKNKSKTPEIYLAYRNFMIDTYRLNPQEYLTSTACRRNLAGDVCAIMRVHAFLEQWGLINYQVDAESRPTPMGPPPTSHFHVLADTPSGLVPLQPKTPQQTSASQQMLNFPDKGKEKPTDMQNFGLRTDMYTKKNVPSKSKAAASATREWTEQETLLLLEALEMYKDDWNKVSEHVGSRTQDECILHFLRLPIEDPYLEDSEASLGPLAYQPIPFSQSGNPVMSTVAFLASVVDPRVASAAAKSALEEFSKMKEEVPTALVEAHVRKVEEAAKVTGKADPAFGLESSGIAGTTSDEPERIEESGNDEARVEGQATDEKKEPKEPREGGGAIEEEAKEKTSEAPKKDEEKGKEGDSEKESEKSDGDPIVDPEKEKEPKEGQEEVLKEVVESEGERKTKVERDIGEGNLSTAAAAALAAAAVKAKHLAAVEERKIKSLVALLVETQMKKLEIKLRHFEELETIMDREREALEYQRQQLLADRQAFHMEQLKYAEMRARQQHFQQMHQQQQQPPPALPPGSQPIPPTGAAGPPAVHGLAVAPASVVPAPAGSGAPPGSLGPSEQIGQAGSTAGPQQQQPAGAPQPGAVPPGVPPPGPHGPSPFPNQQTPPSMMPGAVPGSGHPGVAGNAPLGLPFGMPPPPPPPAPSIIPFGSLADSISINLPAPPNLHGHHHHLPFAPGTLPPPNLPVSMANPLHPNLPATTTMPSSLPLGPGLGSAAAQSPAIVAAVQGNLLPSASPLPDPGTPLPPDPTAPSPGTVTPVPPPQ
UniProt O75391: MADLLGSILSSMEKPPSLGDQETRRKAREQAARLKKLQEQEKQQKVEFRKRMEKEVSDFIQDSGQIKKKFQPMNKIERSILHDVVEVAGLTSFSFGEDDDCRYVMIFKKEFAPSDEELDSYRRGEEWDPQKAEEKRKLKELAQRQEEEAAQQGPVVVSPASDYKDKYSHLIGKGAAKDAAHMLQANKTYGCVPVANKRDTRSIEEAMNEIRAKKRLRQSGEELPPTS
UniProt Q9UQE7: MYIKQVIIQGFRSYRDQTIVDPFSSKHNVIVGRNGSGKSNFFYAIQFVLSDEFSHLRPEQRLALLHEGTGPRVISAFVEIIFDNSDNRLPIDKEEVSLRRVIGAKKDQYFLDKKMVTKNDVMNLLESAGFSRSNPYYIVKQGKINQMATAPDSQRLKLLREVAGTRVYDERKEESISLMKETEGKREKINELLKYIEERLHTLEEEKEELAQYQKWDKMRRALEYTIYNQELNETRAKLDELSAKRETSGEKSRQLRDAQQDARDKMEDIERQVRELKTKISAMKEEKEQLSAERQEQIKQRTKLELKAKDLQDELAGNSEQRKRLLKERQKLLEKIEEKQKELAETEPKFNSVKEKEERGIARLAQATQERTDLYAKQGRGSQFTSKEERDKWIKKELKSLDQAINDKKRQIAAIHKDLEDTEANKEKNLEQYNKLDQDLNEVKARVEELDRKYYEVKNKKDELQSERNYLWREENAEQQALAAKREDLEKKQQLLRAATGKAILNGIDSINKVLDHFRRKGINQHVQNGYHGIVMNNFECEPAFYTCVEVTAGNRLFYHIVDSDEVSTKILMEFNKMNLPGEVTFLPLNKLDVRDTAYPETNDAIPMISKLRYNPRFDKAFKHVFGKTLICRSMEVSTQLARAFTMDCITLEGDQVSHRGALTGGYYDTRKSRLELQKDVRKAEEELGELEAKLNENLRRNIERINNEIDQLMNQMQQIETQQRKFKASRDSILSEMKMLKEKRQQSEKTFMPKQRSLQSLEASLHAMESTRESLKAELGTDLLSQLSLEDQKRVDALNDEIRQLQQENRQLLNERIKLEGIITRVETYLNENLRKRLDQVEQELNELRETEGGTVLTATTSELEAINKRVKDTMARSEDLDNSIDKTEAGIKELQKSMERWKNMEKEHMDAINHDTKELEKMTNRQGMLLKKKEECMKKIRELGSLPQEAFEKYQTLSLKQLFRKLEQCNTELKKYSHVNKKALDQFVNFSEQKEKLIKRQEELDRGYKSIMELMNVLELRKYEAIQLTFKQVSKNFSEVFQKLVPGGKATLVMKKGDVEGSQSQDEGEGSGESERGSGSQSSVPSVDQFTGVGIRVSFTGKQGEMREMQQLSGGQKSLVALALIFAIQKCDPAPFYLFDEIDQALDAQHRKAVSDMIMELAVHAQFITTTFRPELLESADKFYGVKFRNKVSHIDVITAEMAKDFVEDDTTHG
UniProt P62318, whole entry, looked up: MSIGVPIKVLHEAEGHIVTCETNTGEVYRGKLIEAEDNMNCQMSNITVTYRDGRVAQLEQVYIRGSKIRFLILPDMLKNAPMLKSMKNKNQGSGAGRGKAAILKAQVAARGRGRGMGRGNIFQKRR
UniProt P23497: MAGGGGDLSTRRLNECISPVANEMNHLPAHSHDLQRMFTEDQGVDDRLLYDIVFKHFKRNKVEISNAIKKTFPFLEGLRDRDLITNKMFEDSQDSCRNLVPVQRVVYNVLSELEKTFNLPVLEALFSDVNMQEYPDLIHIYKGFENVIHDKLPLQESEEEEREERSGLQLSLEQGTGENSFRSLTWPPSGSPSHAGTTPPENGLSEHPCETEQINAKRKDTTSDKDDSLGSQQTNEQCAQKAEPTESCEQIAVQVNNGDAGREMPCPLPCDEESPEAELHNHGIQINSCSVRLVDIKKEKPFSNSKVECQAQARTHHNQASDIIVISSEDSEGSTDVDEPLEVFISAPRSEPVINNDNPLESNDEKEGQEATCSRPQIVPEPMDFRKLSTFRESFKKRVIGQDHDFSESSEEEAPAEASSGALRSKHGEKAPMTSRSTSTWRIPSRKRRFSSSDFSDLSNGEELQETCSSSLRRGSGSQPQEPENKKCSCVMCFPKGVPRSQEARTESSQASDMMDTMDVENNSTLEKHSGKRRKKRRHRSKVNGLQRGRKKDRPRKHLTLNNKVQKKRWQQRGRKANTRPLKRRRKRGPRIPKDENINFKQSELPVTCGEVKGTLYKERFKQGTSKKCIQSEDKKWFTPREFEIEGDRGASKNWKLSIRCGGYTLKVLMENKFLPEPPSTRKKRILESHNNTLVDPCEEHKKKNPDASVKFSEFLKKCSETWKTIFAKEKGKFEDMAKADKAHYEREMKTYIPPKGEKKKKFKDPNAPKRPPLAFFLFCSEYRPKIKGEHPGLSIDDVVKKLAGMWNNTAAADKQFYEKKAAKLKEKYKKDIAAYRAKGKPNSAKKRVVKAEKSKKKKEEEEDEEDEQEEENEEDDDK
UniProt Q3SY56: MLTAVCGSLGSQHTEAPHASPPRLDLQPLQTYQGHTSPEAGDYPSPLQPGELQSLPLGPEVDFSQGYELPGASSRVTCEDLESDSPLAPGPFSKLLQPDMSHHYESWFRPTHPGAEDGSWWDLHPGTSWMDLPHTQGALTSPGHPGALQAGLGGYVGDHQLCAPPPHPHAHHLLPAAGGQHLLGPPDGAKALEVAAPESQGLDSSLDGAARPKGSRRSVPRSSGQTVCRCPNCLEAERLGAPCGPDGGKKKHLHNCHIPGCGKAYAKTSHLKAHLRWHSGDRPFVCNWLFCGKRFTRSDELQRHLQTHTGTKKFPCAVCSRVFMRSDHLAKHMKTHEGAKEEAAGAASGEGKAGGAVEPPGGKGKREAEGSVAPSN
UniProt O76070, whole entry, looked up: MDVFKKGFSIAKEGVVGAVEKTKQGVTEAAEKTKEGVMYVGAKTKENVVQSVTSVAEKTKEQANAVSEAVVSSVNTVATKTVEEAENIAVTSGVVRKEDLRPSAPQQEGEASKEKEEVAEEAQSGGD
UniProt Q15036: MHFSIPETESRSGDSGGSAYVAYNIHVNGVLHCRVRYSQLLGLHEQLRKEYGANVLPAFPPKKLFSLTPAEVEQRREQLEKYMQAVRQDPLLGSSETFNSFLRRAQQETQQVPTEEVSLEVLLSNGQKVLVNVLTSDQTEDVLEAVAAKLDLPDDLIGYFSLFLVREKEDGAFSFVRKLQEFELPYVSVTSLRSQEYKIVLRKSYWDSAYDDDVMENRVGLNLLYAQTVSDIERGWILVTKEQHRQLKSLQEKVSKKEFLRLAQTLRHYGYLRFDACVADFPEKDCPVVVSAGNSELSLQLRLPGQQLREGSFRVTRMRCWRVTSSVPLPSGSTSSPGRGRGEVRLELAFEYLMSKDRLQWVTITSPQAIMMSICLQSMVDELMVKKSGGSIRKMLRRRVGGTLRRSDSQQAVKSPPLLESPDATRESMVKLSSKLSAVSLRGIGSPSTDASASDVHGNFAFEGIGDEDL
UniProt Q16637, whole entry, looked up: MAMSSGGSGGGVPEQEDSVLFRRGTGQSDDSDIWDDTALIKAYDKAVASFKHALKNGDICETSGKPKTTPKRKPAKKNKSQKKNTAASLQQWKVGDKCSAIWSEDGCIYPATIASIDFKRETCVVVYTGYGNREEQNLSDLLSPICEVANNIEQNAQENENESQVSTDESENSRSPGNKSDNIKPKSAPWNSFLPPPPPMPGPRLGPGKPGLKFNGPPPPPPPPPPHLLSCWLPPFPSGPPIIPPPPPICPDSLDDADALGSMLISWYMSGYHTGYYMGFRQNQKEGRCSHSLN
UniProt P62308, whole entry, looked up: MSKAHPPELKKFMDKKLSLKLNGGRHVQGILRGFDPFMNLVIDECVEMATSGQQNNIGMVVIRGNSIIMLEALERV
UniProt Q53HV7: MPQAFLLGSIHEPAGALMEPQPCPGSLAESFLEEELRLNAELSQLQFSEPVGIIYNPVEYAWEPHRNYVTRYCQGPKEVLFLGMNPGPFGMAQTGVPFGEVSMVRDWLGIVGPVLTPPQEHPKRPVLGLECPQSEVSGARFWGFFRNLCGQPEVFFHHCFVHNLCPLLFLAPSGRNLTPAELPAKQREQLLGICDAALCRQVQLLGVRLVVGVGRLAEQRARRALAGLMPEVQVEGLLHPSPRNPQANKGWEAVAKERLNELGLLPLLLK

Tubastatin A = compound: CN1CCc2c(c3ccccc3n2Cc2ccc(C(=O)NO)cc2)C1 [Tubastatin A]
Summary of the method: as §1

[1] = compound: CNC(=O)C1=CC=CC=C1NC2=NC(=NC=C2Cl)NC3=C(C=C(C=C3)N4CCOCC4)OC
Summary of the method: as §1

defactinib = compound: CNC(=O)c1ccc(Nc2ncc(C(F)(F)F)c(NCc3nccnc3N(C)S(C)(=O)=O)n2)cc1 [defactinib]
Summary of the method: as §1

[2] = compound: CNc1nc(-c2ccc3c(N)n[nH]c3c2)cc(N2C[C@@H](C(=O)NC3CCCCC3)CC[C@H]2C)n1
Summary of the method: as §1

encorafenib = compound: COC(=O)N[C@@H](C)CNc1nccc(-c2cn(C(C)C)nc2-c2cc(Cl)cc(NS(C)(=O)=O)c2F)n1 [encorafenib]
Summary of the method: as §1

[3] = compound: COC(=O)[C@H](CCSC)NC(=O)C1=C(C=C(C=C1)NC[C@H](CS)N)C2=CC=CC=C2
Summary of the method: as §1

alisertib = compound: COc1cc(Nc2ncc3c(n2)-c2ccc(Cl)cc2C(c2c(F)cccc2OC)=NC3)ccc1C(=O)O [alisertib]
Summary of the method: as §1

[4] = compound: COc1cc2nc(-c3cc(F)ccc3O)nc(N[C@@H]3CNC[C@H]3C(C)(C)O)c2cc1OC
Summary of the method: as §1

gefitinib = compound: COc1cc2ncnc(Nc3ccc(F)c(Cl)c3)c2cc1OCCCN1CCOCC1 [gefitinib]
Summary of the method: as §1

Measured: log2 fold change

SOS1 (UniProt Q07889)
inactive: alvocidib -0.022 | Tubastatin A -0.105 | [1] -0.029 | defactinib -0.055 | [2] 0.037 | encorafenib 0.051 | [3] 0.124 | alisertib -0.007 | [4] 0.014 | gefitinib -0.055

SMU1 (UniProt Q2TAY7)
inactive: alvocidib 0.001 | Tubastatin A 0.024 | [1] -0.021 | defactinib 0.005 | [2] -0.039 | encorafenib 0.014 | [3] 0.002 | alisertib 0.006 | [4] 0.002 | gefitinib -0.034

SNX3 (UniProt O60493)
inactive: alvocidib -0.001 | Tubastatin A -0.024 | [1] -0.021 | defactinib 0.021 | [2] -0.089 | encorafenib 0.005 | [3] -0.103 | alisertib 0.008 | [4] -0.027 | gefitinib -0.006

SMARCB1 (UniProt Q12824)
inactive: alvocidib 0.048 | Tubastatin A -0.071 | [1] -0.003 | defactinib 0.018 | [2] 0.003 | encorafenib -0.014 | [3] 0.152 | alisertib -0.012 | [4] 0.005 | gefitinib -0.012

SNX6, A0A0A0MRI2
inactive: alvocidib 0.076 | Tubastatin A -0.051 | [1] 0.004 | defactinib 0.008 | [2] -0.024 | encorafenib 0.007 | [3] 0.171 | alisertib -0.008 | [4] -0.003 | gefitinib -0.01

SMYD2 (UniProt Q9NRG4)
inactive: alvocidib 0.159 | Tubastatin A -0.118 | [1] 0.03 | defactinib -0.011 | [2] 0.006 | encorafenib -0.001 | [3] -0.002 | alisertib 0.074 | [4] 0.018 | gefitinib -0.011

SORT1 (UniProt Q99523)
inactive: alvocidib -0.018 | Tubastatin A 0.008 | [1] -0.033 | defactinib -0.004 | [2] -0.003 | encorafenib 0.023 | [3] -0.012 | alisertib -0.057 | [4] -0.005 | gefitinib 0.036

SMG1 (UniProt Q96Q15)
inactive: alvocidib 0.022 | Tubastatin A -0.05 | [1] 0.01 | defactinib 0.033 | [2] -0.046 | encorafenib 0.016 | [3] 0 | alisertib -0.02 | [4] -0.013 | gefitinib 0.012

Retrieved one by one from the list above (2):
SMYD2 (UniProt Q9NRG4)
inactive: alvocidib 0.159 | Tubastatin A -0.118 | [1] 0.03 | defactinib -0.011 | [2] 0.006 | encorafenib -0.001 | [3] -0.002 | alisertib 0.074 | [4] 0.018 | gefitinib -0.011

SORT1 (UniProt Q99523)
inactive: alvocidib -0.018 | Tubastatin A 0.008 | [1] -0.033 | defactinib -0.004 | [2] -0.003 | encorafenib 0.023 | [3] -0.012 | alisertib -0.057 | [4] -0.005 | gefitinib 0.036

(next part)

SMARCA5 (UniProt O60264)
inactive: alvocidib -0.014 | Tubastatin A -0.075 | [1] -0.029 | defactinib -0.027 | [2] 0.024 | encorafenib 0.019 | [3] 0.073 | alisertib 0.012 | [4] 0.009 | gefitinib 0.005

SNX12 isoform 1 (UniProt Q9UMY4)
inactive: alvocidib 0.001 | Tubastatin A 0.024 | [1] -0.001 | defactinib -0.032 | [2] 0.02 | encorafenib 0 | [3] -0.077 | alisertib -0.016 | [4] -0.002 | gefitinib 0.026

SMARCC2 (UniProt Q8TAQ2)
inactive: alvocidib -0.014 | Tubastatin A -0.039 | [1] -0.002 | defactinib 0.016 | [2] -0.016 | encorafenib 0.007 | [3] 0.032 | alisertib -0.009 | [4] -0.012 | gefitinib -0.025

SNX27 (UniProt Q96L92)
inactive: alvocidib -0.017 | Tubastatin A -0.019 | [1] 0.026 | defactinib -0.037 | [2] -0.079 | encorafenib -0.038 | [3] 0.052 | alisertib -0.021 | [4] -0.022 | gefitinib -0.006

SMARCAD1 isoform 2 (UniProt Q9H4L7)
inactive: alvocidib -0.007 | Tubastatin A -0.13 | [1] 0.037 | defactinib 0.03 | [2] 0.003 | encorafenib 0.029 | [3] 0.052 | alisertib -0.018 | [4] 0.004 | gefitinib 0.028

SPAG7 (UniProt O75391)
inactive: alvocidib -0.016 | Tubastatin A 0.038 | [1] -0.041 | defactinib -0.003 | [2] 0.009 | encorafenib 0.018 | [3] -0.024 | alisertib -0.005 | [4] 0.023 | gefitinib -0.013

SNRPC (UniProt Q5TAL2)
inactive: alvocidib 0.012 | Tubastatin A 0.067 | [1] 0.008 | defactinib -0.039 | [2] 0.136 | encorafenib 0.032 | [3] -0.05 | alisertib -0.05 | [4] 0.013 | gefitinib -0.164

SMC3 (UniProt Q9UQE7)
inactive: alvocidib -0.009 | Tubastatin A 0.006 | [1] 0.003 | defactinib 0.002 | [2] -0.036 | encorafenib -0.007 | [3] 0.002 | alisertib 0.005 | [4] -0.013 | gefitinib -0.005

SNRPB isoform 3 (UniProt P14678)
inactive: alvocidib -0.014 | Tubastatin A 0.005 | [1] 0.01 | defactinib 0.008 | [2] 0.012 | encorafenib 0.002 | [3] -0.001 | alisertib -0.013 | [4] 0.033 | gefitinib 0.009

SNRPD3 (UniProt P62318)
inactive: alvocidib -0.121 | Tubastatin A 0.014 | [1] -0.003 | defactinib -0.046 | [2] -0.068 | encorafenib -0.014 | [3] 0.027 | alisertib 0.017 | [4] 0.022 | gefitinib 0.052

SP100 isoform 4 (UniProt P23497)
inactive: alvocidib -0.007 | Tubastatin A -0.019 | [1] -0.021 | defactinib 0.038 | [2] -0.01 | encorafenib 0.021 | [3] -0.067 | alisertib 0.01 | [4] -0.005 | gefitinib -0.051

SP6 (UniProt Q3SY56)
inactive: alvocidib 0.253 | Tubastatin A -0.174 | [1] 0.077 | defactinib 0.034 | [2] 0.048 | encorafenib 0.049 | [3] -0.204 | alisertib -0.315 | [4] 0.006 | gefitinib -0.169

SNCG (UniProt O76070)
inactive: alvocidib 0.007 | Tubastatin A 0.059 | [1] 0.019 | defactinib 0.02 | [2] 0.09 | encorafenib -0.011 | [3] 0.004 | alisertib 0.015 | [4] 0.007 | gefitinib 0

SOGA1 isoform 2 (UniProt O94964)
inactive: alvocidib -0.011 | Tubastatin A -0.064 | [1] -0.017 | defactinib 0.004 | [2] 0.028 | encorafenib 0.066 | [3] 0.195 | alisertib 0.031 | gefitinib 0.017

SNX17 (UniProt Q15036)
inactive: alvocidib -0.018 | Tubastatin A 0.017 | [1] -0.012 | defactinib 0.033 | [2] -0.006 | encorafenib -0.006 | [3] -0.048 | alisertib -0.068 | [4] -0.053 | gefitinib -0.03

SMN1 (UniProt Q16637)
inactive: alvocidib -0.05 | Tubastatin A -0.173 | [1] 0.017 | defactinib -0.023 | [2] -0.01 | encorafenib 0.03 | [3] 0.149 | alisertib 0.062 | [4] -0.024 | gefitinib -0.064

SNRPG (UniProt P62308)
inactive: alvocidib -0.104 | Tubastatin A 0.02 | [1] 0.018 | defactinib 0.014 | [2] 0.063 | encorafenib 0.005 | [3] -0.034 | alisertib 0.003 | [4] 0.007 | gefitinib 0.02

SNX5 (UniProt Q9Y5X3)
inactive: alvocidib 0.023 | Tubastatin A -0.015 | [1] -0.016 | defactinib 0 | [2] -0.041 | encorafenib -0.01 | [3] 0.022 | alisertib 0.009 | [4] -0.027 | gefitinib 0.007

SMUG1 (UniProt Q53HV7)
inactive: alvocidib -0.034 | Tubastatin A -0.157 | [1] 0.134 | defactinib 0.081 | [2] 0.047 | encorafenib 0.13 | [3] -0.076 | alisertib 0.059 | [4] 0.021 | gefitinib -0.137
